These are yes or no findings as the source states them, for the method shown. Some results given as binding are weak or reduced against the parent protein; the word gives no strength.

The values below come from patent US20060286066A1 (published 2006).

In the assay the target is hen egg white lysozyme (hen, UniProt P00698 19-147). Description: batch binding to lysozyme-Sepharose affinity resin, SDS-PAGE read-out. On the procedure: A HEL4 affinity based resin (based on the antigen, hen egg white lysozyme) was produced to test the functionality of the PEGylated dAb. Lysozyme was coupled to NETS activated Sepharose 4B resin (Amersham Pharmacia) following the manufacturer's instructions. The PEGylated samples (5 μg) were then mixed with the affinity resin (100 μl) and allowed to bind in PBS at room temperature for 30 mins. The resin was then extensively washed with PBS (3×1 ml) to remove unbound protein. The affinity resin was then run on a SDS-PAGE to determine if the PEGylated HEL4 had bound to the matrix (see Section 8.3).

B1: HEL4 PEGylated with THIOL-PEG (protein)
VH: EVQLLESGGGLVQPGGSLRLSCAASGFRISDEDMGWVRQAPGKGLEWVSSIYGPSGSTYYADSVKGRFTISRDNSKNTLYLQMNSLRAEDTAVYYCASALEPLSEPLGFWGQGTLVTVSS
modifications: THIOL-PEG on a cysteine (position and construct not given)
Take B1: the binding entry is reported as “binds”.

B2: HEL4 PEGylated with MAL-PEG (protein)
VH: B1 VH
modifications: MAL-PEG on a cysteine (position and construct not given)
As for B2, the binding result is “binds”.
